Laboratory results: PubChem BioAssay AID504784 (Drosophila RNAi Screening Center, 2011)
The deposit covers about 17,000 reagents; shown is a random part of those that have a named target and a result. 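Each column is one replicate's B-score; the combined score over replicates was not deposited, so single values may mislead.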 Reagents against one gene are numbered here. Not all columns of the deposit are shown. No sequences are given here.

- Screen: 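Fly genes whose silencing alters how much lipid cells keep in droplets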 (primary screen)
- System: Drosophila Kc167 embryonic cells
- Reagents: long dsRNA against Drosophila genes, about 250 ng dsRNA per well
- Time to read-out: 4 days
- Conditions: cells fed 400 µM oleic acid bound to BSA
- Detection: 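Cells imaged and segmented; ratio of lipid droplet area to nuclear area, log-transformed, then normalised as a B-score over the screen; higher means more stored lipid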
- Reading the numbers: droplet/nuclear area B-score: higher = more stored lipid (overstorage)

| predicted target | dsRNA no. | droplet/nuclear area B-score, replicate 1 |
| --- | --- | --- |
| Oatp33Eb (Organic anion transporting polypeptide 33Eb) | 1 | -0.385 |
| MED18 (Mediator complex subunit 18) | 1 | -0.00833 |
| CG33017 | 1 | 0.364 |
| CG33017 | 2 | 0.954 |
| ClpX (Caseinolytic protease chaperone subunit) | 1 | -0.518 |
| CalpA (Calpain-A) | 1 | -0.0101 |
| fzr (fizzy-related) | 1 | 0.332 |
| Tfb1 (Transcription factor B1) | 1 | -3.96 |
| CG4743 | 1 | -1.73 |
| Dpck (Dephospho-CoA kinase) | 1 | 1.58 |
| Ac76E (Adenylyl cyclase 76E) | 1 | 3.7 |
| Ac76E (Adenylyl cyclase 76E) | 2 | 0.00181 |
| CG10222 | 1 | 0.0442 |
| CG8607 | 1 | -0.0118 |
| CG13427 | 1 | 0.11 |
| sta (stubarista) | 1 | 2.25 |
| CG2790 | 1 | -0.365 |
| qkr54B (quaking related 54B) | 1 | -1.15 |
| Sugb (Sugar baby) | 1 | 0.161 |
| CG30116 | 1 | 0.325 |
| CG30116 | 2 | 0.995 |
| CG5704 | 1 | 2.75 |
| ppk17 (pickpocket 17) | 1 | -0.247 |
| CG18746 | 1 | -0.943 |
| Atxn7 (Ataxin 7) | 1 | 0.522 |
| Atxn7 (Ataxin 7) | 2 | -0.237 |
| CG7304 | 1 | 0.122 |
| CG31244 | 1 | -1.08 |
| Ankrd49 | 1 | -0.737 |
| beta'COP (Coat Protein (coatomer) beta') | 1 | 5.4 |
| CG32720 | 1 | 4.38 |
| CG11961 | 1 | 0.429 |
| beat-Va (beaten path Va) | 1 | -0.571 |
| CG31883 | 1 | 0.48 |
| CG1774 | 1 | -0.069 |
| casp (caspar) | 1 | -0.595 |
| Snap25 (Synaptosomal-associated protein 25kDa) | 1 | -0.787 |
| Snap25 (Synaptosomal-associated protein 25kDa) | 2 | -0.721 |
| CG16868 | 1 | 0.85 |
| CG6472 | 1 | 4.27 |
| Cyt-c1L (Cytochrome c1-like) | 1 | -0.0495 |
| Cyt-c1L (Cytochrome c1-like) | 2 | 0.283 |
| mRpL38 (mitochondrial ribosomal protein L38) | 1 | 2.01 |
| Mgat4b | 1 | 0.271 |
| RabX1 | 1 | 1.73 |
| retinin | 1 | 1.17 |
| Dg (Dystroglycan) | 1 | -1.51 |
| CG2247 | 1 | -0.591 |
| Ir92a (Ionotropic receptor 92a) | 1 | -0.0223 |
| brm (brahma) | 1 | 6.85 |
| IPIP (Inositol phosphatase interacting protein) | 1 | 1.98 |
| CG14507 | 1 | -1.75 |
| Usp39 (Ubiquitin specific protease 39) | 1 | 1.21 |
| TotB (Turandot B) | 1 | -0.909 |
| CG34406 (retired record) | 1 | 0.762 |
| CG34406 (retired record) | 2 | -0.251 |
| Gr59a (Gustatory receptor 59a) | 1 | -2.08 |
| Gem3 (Gemin 3) | 1 | 0.00856 |
| mthl8 (methuselah-like 8) | 1 | 0.0246 |
| mthl8 (methuselah-like 8) | 2 | -0.779 |
| CG15185 | 1 | -0.0621 |
| CG9095 | 1 | -0.262 |
| Dh31-R (Diuretic hormone 31 Receptor) | 1 | 1.83 |
| Dh31-R (Diuretic hormone 31 Receptor) | 2 | -0.353 |
| AIMP2 (aaRS-interacting multifunctional protein 2) | 1 | -0.384 |
| Gr22f (Gustatory receptor 22f) | 1 | 2 |
| prage | 1 | -0.0169 |
| prage | 2 | -0.497 |
| prage | 3 | 0.142 |
| prage | 4 | 1.42 |
| yata | 1 | -2.06 |
| CG14561 | 1 | -1.98 |
| lcs (la costa) | 1 | -0.143 |
| PPP4R2r (Protein phosphatase 4 regulatory subunit 2-related protein) | 1 | 0.376 |
| PPP4R2r (Protein phosphatase 4 regulatory subunit 2-related protein) | 2 | -1.05 |
| CG14644 | 1 | 0.605 |
| CG6424 | 1 | 0.155 |
| CG32647 | 1 | -0.218 |
| CG32647 | 2 | -0.867 |
| CG9737 | 1 | -0.24 |
| CG17321 | 1 | -0.285 |
| Abcd1 (ATP binding cassette subfamily D member 1) | 1 | -0.547 |
| Srr (Serine racemase) | 1 | 2.25 |
| Cyp310a1 (Cytochrome P450 310a1) | 1 | 0.659 |
| Boot (Bootlegger) | 1 | 0.0208 |
| shrb (shrub) | 1 | 0.105 |
| Trf (TBP-related factor) | 1 | 0.185 |
| CheB42a (Chemosensory protein B 42a) | 1 | 0.902 |
| SP (Sex Peptide) | 1 | 1.71 |
| srp (serpent) | 1 | -0.295 |
| srp (serpent) | 2 | 1.81 |
| beat-Ib (beaten path Ib) | 1 | -0.439 |
| CG6180 | 1 | 0.0273 |
| Tspo (Translocator protein) | 1 | -0.497 |
| sni (sniffer) | 1 | -0.108 |
| retm (real-time) | 1 | -1.84 |
| CG34425 | 1 | 0.0556 |
| CG34425 | 2 | -0.932 |
| SmydA-7 (SET and MYND domain containing, arthropod-specific, member 7) | 1 | 0.0192 |
| alphaTry (alphaTrypsin) | 1 | 0.826 |
| Lcp65Ad | 1 | -2.27 |
| Ance-4 | 1 | 0.0888 |
| CG10576 | 1 | 0.000199 |
| NPF (neuropeptide F) | 1 | -0.483 |
| Gr21a (Gustatory receptor 21a) | 1 | -0.471 |

A stretch of the results above, for reference:
| predicted target | dsRNA no. | droplet/nuclear area B-score, replicate 1 |
| --- | --- | --- |
| Usp39 (Ubiquitin specific protease 39) | 1 | 1.21 |
| TotB (Turandot B) | 1 | -0.909 |
| CG34406 (retired record) | 1 | 0.762 |
| CG34406 (retired record) | 2 | -0.251 |
| Gr59a (Gustatory receptor 59a) | 1 | -2.08 |
| Gem3 (Gemin 3) | 1 | 0.00856 |
| mthl8 (methuselah-like 8) | 1 | 0.0246 |
